Measured values published in article PMC5920288.

Experiments:
Assay in all cases: two-hybrid; GAL4 yeast two-hybrid; prey in Y187 and bait in Y2HGold, mated; selection on SD-L-T-H with an optimized content of 3-AT and on SD-L-T-H-A
[1] = target: T1, OsNF-YB1 (rice (Oryza sativa subsp. Japonica, cv Kitaake)) (UniProt Q6Z348)
T1 sequence: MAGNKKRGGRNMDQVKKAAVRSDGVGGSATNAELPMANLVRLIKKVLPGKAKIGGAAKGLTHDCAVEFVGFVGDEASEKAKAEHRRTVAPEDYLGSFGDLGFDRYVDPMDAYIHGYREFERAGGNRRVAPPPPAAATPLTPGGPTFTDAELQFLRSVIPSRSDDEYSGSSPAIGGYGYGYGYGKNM

[2] = target: OsNF-YC11 (rice (Oryza sativa subsp. Japonica, cv Kitaake))
[3] = target: OsNF-YC9 (rice (Oryza sativa subsp. Japonica, cv Kitaake))
[4] = target: OsNF-YC10 (rice (Oryza sativa subsp. Japonica, cv Kitaake))
[5] = target: OsNF-YC8 (rice (Oryza sativa subsp. Japonica, cv Kitaake))
[6] = target: OsNF-YC12 (rice (Oryza sativa subsp. Japonica, cv Kitaake))

For OsNF-YA8, the binding [1] was “no binding”.

In the case of OsERF72, the binding [1] is reported as “no binding”.

For OsERF74, the binding [1] was “no binding”.

B1: OsNF-YB1 (protein, UniProt Q6Z348 1-186)
chain: MAGNKKRGGRNMDQVKKAAVRSDGVGGSATNAELPMANLVRLIKKVLPGKAKIGGAAKGLTHDCAVEFVGFVGDEASEKAKAEHRRTVAPEDYLGSFGDLGFDRYVDPMDAYIHGYREFERAGGNRRVAPPPPAAATPLTPGGPTFTDAELQFLRSVIPSRSDDEYSGSSPAIGGYGYGYGYGKNM
In the case of B1, the binding [2] is reported as “binds”, the binding [3] is reported as “binds” and the binding [4] is reported as “binds”. The binding [5] was “binds” and the binding [6] was “binds”.

These are yes or no findings as the source states them, for the method shown. For some assays here: Binding calls can cover weak binding; strength is not graded here.
